Reference: paper PMC6269755, “In Vitro Antiprotozoal Activity of Triterpenoid Constituents of Kleinia odora Growing in Saudi Arabia” (Molecules, 2013)

Test: Cytotoxicity against MRC-5 cells, resazurin
Type: cell-based
Settings: human, MRC-5 SV2 fibroblast cells, pure compounds
Method: The integrated panel of microbial screens and standard screening methodologies were adopted as previously described. All assays were performed in triplicate at the Laboratory of Microbiology, Parasitology and Hygiene at the University of Antwerp (Belgium). […] Selectivity of activity was assessed by simultaneous evaluation of cytotoxicity on a fibroblast (MRC-5) cell line.
MRC-5 SV2 cells were cultivated in MEM, supplemented with L-glutamine (20 mM), 16.5 mM sodium hydrogen carbonate and 5% FCS. For the assay, 10^4 MRC-5 cells/well were seeded onto the test plates containing the pre-diluted sample and incubated at 37 °C and 5% CO2 for 72 h. Cell viability was assessed fluorimetrically after 4 h of addition of resazurin. Fluorescence was measured (excitation 550 nm, emission 590 nm) and the results were expressed as % reduction in cell viability compared to control.

Compound `CC/C(=C(\c1ccccc1)c1ccc(OCCN(C)C)cc1)c1ccccc1` [Tamoxifen, reference compound] has an IC50 at 72 h of 11.4 ± 3.2 µM.
